# Measured values published in doi:10.1101/393272.
# Protein sequences, listed by entry. Tags and fused reporters are not part of them. Lines headed by an entry give the natural chain unless they say otherwise; changes in a name come on top.
# UniProt P55852: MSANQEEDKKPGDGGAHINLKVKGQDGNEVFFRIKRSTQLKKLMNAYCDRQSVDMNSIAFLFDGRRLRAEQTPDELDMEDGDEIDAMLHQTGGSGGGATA
# These are yes or no findings as the source states them, for the method shown. In cells and extracts the contact can be indirect. Binding can be weak; no strength is given. Where a sequence is shown, tags or fusion partners need not be part of it.
# B1: ^NYFP-tagged SCE1 (enzyme, UniProt Q42551 1-160)
# chain: MASGIARGRLAEERKSWRKNHPHGFVAKPETGQDGTVNLMVWHCTIPGKAGTDWEGGFFPLTMHFSEDYPSKPPKCKFPQGFFHPNVYPSGTVCLSILNEDYGWRPAITVKQILVGIQDLLDTPNPADPAQTDGYHLFCQDPVEYKKRVKLQSKQYPALV
# Assays:
# [1] = molecular target: ^CYFP-tagged SUMO1^ΔGG (Arabidopsis thaliana) (UniProt P55852); experiment: split reporter
# [2] = molecular target: ^CYFP-tagged SUMO1^GG (Arabidopsis thaliana) (UniProt P55852); experiment: split reporter
binder,measurement,setting,value
B1,binding,[1],binds
same,binding,[2],binds
